Measurements reported in article PMC10435448.

Protein sequences, listed by entry. Tags and fused reporters are not part of them.
UniProt Q06609, whole entry: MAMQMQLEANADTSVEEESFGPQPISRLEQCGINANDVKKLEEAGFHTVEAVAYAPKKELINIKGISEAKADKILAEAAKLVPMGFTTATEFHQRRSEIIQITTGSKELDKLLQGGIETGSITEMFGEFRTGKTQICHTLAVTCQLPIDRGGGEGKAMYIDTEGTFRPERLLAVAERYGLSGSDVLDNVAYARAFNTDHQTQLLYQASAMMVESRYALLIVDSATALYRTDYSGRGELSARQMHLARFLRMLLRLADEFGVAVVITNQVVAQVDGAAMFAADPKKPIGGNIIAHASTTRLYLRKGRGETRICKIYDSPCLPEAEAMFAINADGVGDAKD
UniProt Q06609, whole entry R130A/R303A/K313A: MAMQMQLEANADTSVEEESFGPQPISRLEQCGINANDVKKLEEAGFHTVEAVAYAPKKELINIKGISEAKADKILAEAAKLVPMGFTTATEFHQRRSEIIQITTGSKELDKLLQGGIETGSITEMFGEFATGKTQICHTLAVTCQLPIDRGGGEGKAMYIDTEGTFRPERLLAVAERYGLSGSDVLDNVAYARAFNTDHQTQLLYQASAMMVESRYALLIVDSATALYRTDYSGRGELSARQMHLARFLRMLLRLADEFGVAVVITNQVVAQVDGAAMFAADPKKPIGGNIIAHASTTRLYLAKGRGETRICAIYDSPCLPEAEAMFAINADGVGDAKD

Tests used:
[1] = target: hRAD51 wild-type (Homo sapiens) (UniProt Q06609); test: EMSA; conditions: 2 mM ADP, 10 mM MgCl2, 0.5-6 uM protein, 3 uM nt DNA, EMSA: 35 mM Tris-HCl pH 7.5, 1 mM DTT, 10 mM MgCl2, 100 ng/ul BSA, 50 mM KCl, 37 C 10 min, 2% agarose TAE at 4 C, recombinant protein, single-stranded DNA
[2] = target: hRAD51-II3A R130A,R303A,K313A (Homo sapiens) (UniProt Q06609); test: EMSA; conditions: 2 mM ADP, 10 mM MgCl2, 0.5-6 uM protein, smeared complex, EMSA: 35 mM Tris-HCl pH 7.5, 1 mM DTT, 10 mM MgCl2, 100 ng/ul BSA, 50 mM KCl, 37 C 10 min, 2% agarose TAE at 4 C, recombinant protein, single-stranded DNA
[3] = target: hRAD51 wild-type (Homo sapiens) (UniProt Q06609); test: cryo-EM ATP chase; conditions: ADP filament chased with 10 mM ATP, single-filaments 42.5%, well-defined ssDNA density; cryo-EM: 35 mM Tris-HCl pH 7.5, 108 mM KCl, 1 mM DTT, 1 mM ADP, 5 mM CaCl2, 2.5 mM MgCl2, 37 C 30 min; recombinant protein; single-stranded DNA
[4] = target: hRAD51-II3A R130A,R303A,K313A (Homo sapiens) (UniProt Q06609); test: cryo-EM (2D classification); conditions: ADP, shorter, more heterogeneous double-filaments; cryo-EM: 35 mM Tris-HCl pH 7.5, 108 mM KCl, 1 mM DTT, 1 mM ADP, 5 mM CaCl2, 2.5 mM MgCl2, 37 C 30 min; recombinant protein; single-stranded DNA

TTATGTTCATTTTTTATATCCTTTACTTTATTTTCTCTGTTTATTCATTTACTTATTTTGTATTATCCTTATCTTATTTA [Oligo 1 (80 nt ssDNA), Cy5-labeled]
binding result [1]: binds
binding result [2]: binds more weakly

TTATGTTCATTTTTTATATCCTTTACTTTATTTTCTCTGTTTATTCATTTACTTATTTTGTATTATCCTTATCTTATTTA [Oligo 1 (80 nt ssDNA), unlabeled]
binding result [3]: binds
binding result [4]: binds

The exact form of at least one protein or probe is not confirmed. For some of these results: A weaker result is weaker than the reference pair of the same experiment. For some of these results: At least one verdict rests on a figure or table, not on a statement of the authors.
